This passage reports binding results from publication doi:10.1101/211029.

By UniProt entry, the sequences of proteins in these tests, tags left out.
UniProt P18901: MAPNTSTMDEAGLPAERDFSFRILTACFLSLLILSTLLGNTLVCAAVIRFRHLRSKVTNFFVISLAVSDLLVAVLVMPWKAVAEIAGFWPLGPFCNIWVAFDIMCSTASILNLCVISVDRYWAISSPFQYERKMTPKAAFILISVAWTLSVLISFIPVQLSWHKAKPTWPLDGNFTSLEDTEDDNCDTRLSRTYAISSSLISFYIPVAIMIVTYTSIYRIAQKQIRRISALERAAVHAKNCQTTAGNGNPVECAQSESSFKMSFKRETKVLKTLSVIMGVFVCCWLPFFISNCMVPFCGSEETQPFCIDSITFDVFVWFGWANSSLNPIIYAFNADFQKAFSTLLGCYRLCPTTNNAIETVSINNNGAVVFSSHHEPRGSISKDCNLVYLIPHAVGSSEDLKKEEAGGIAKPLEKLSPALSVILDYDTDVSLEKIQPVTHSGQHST

No constants are given. Whether binding was seen depends on the method and setting. Binding seen in cells or lysates may run through a third protein.

This assay addresses Dopamine D1 receptor (rat (endogenous in nucleus accumbens)) (UniProt P18901). As to the kind of experiment: co-IP.

B1: gephyrin, an inhibitory synapse post-synaptic scaffold (protein, UniProt Q03555 1-768)
chain: MATEGMILTNHDHQIRVGVLTVSDSCFRNLAEDRSGINLKDLVQDPSLLGGTISAYKIVPDEIEEIKETLIDWCDEKELNLILTTGGTGFAPRDVTPEKFPTFPFCGLQKGATKEVIEREAPGMALAMLMGSLNVTPLGMLSRPVCGIRGKTLIINLPGSKKGSQECFQFILPALPHAIDLLRDAIVKVKEVHDELEDLPSPPPPLSPPPTTSPHKQTEDKGVQCEEEEEEKKDSGVASTEDSSSSHITAAALAAKIPDSIISRGVQVLPRDTASLSTTPSESPRAQATSRLSTASCPTPKQIRRPDESKGVASRVGSLKVQSRCSSKENILRASHSAVDITKVARRHRMSPFPLTSMDKAFITVLEMTPVLGTEIINYRDGMGRVLAQDVYAKDNLPPFPASVKDGYAVRAADGPGDRFIIGESQAGEQPTQTVMPGQVMRVTTGAPIPCGADAVVQVEDTELIRESDDGTEELEVRILVQARPGQDIRPIGHDIKRGECVLAKGTHMGPSEIGLLATVGVTEVEVNKFPVVAVMSTGNELLNPEDDLLPGKIRDSNRSTLLATIQEHGYPTINLGIVGDNPDDLLNALNEGISRADVIITSGGVSMGEKDYLKQVLDIDLHAQIHFGRVFMKPGLPTTFATLDIDGVRKIIFALPGNPVSAVVTCNLFVVPALRKMQGILDPRPTIIKARLSCDVKLDPRPEYHRCILTWHHQEPLPWAQSTGNQMSSRLMSMRSANGLLMLPPKTEQYVELHKGEVVDVMVIGRL
For the molecule B1, the binding result is “no binding”.
